In PubChem BioAssay AID1347423 (Functional Genomics Laboratory (NCATS/FGL), 2020):
Out of some 52,000 sequences screened, about 210 (0.4%) were called active.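 The calls were made as follows: active = gene whose silencing raises cell survival under the drug, median off-target-corrected z-score across its silencing RNAs 2 or more; inactive = the rest.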 This is one part of the list.

Experiment: Resistance to Poly (ADP-Ribose) Polymerase inhibitor: Gene Identification via Genome-wide siRNA Screen
Conditions: mouse BRCA2 R2336H ES cells, olaparib, CellTiter-Glo viability; hits give high values
Summary of the method: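 Genome-wide siRNA screen (3 siRNAs/gene, 20 nM) in mouse ES cells carrying hypomorphic BRCA2 R2336H; olaparib 500 nM added 48 h post-transfection, CellTiter-Glo viability 72 h later. Normalized to plate-median negative control; MAD z-scores, gene median, seed-adjusted.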

| Sequence | z-score |
| --- | --- |
| GGCCUUCAACGAUUCAAUCTT against Olfr770 | inactive: -0.329 |
| GGACUUCACCAUCCACGAATT against Frag1 | inactive: 1.18 |
| GGACCCAGCUCCUGUACAUTT against 0610043B10Rik | inactive: -0.36 |
| GGCAUCCAUUCAAGAGAAUTT against 4122402O22Rik | inactive: -0.745 |
| GGAACAAGAGAAGCAAAUATT against Ifitm7 | inactive: -0.00246 |
| GGUAUUUGAAGAUGUCAAATT against Abcd1 | inactive: 1.42 |
| GGCUGUUCAGAAGUUCACGTT against Saa3 | inactive: 0.0347 |
| GGAAAAUCAUUUCAUCGUGTT against Aurkc | inactive: 1.04 |
| GGUUGGCACAACUGUGUACTT against Cr2 | inactive: -2.34 |
| GGGACUCUCAAAAUUCACUTT against Bnc2 | inactive: -0.434 |
| GGGAUGAAGUAGUUUUAAUTT against Zfp403 | inactive: 0.0849 |
| GGAUACGAGACAAUGAGAATT against Kctd2 | inactive: -0.607 |
| GCAGAGUCACCUUACUAACTT against 4632404H22Rik | inactive: 0.0936 |
| GGAAGUCUUGAGCCUGCUUTT against Folr2 | inactive: -0.626 |
| GGUACUUUUAUCUUAGCUATT against BC034902 | inactive: -0.59 |
| GGGUAAAACAGAGGAAGAATT against 2610209M04Rik | inactive: -0.867 |
| GGAUGAGAAUGGGAAGAUUTT against Ard1 | inactive: 0.911 |
| GCCAAUAAGGAAGCGGAUUTT against 2610528M18Rik | inactive: 1.86 |
| GGCAGUGGGAUUACAAUGATT against Tnrc11 | inactive: -1.3 |
| GGAGUCUCCUAAAAAAGGATT against Tcof1 | inactive: -0.688 |
| GAGAAUUAAAGUCAAACGUTT against 4930485D02Rik | inactive: 1.59 |
| GCUUGUAGUGACUGCCUAUTT against V1rc22 | inactive: -1.8 |

| Sequence | z-score |
| --- | --- |
| GGGUUGGAAGCAAUUGCUGTT against Ubtd1 | inactive: -1 |
| CCUAGGUUGUCGCCAGGUUTT against Nkx2-3 | inactive: 0.0319 |
| GGGUCAUCACCAUCAUGUCTT against Slc22a5 | inactive: 0.522 |
| GCCGGGACCAUGAUUAUAGTT against Rbm10 | inactive: -1.03 |
| GGAGCAAGUCAAGUCUCAUTT against 5832424M12 | inactive: 1.47 |
| GGCUGUACUAACUGUCGUUTT against AA415817 | inactive: -0.537 |
| GGUCAUUUCAAGUGCUAAGTT against D7Ertd680e | inactive: 1.01 |
| GGACUUCUUGGACCUACUUTT against F5 | inactive: -1.35 |
| GGUCUGAAAAUGGAAUACCTT against D330038K10Rik | inactive: 0.138 |
| CGGGAAGCAUAUUAUCUAUTT against 6430601A21Rik | inactive: 0.801 |
| GCAACAUCACACAAGACCATT against Il13 | inactive: 0.273 |
| GCUAGAGUAUGAGAACUUCTT against Cdc14b | inactive: -1.31 |
| CCAACCUAAGCACUCCAAATT against BC010250 | inactive: -2.79 |
| CCAGCAAUAACAAUCAGAGTT against Prosapip1 | inactive: -0.107 |
| GGACCACUCCAAGAGUUCUTT against B130055D15Rik | inactive: -1.72 |
| GCGGUAAGGAACUUAAUGATT against Fv1 | inactive: 1.11 |
| GGAACACACAGAGGUUUAUTT against Ptpla | inactive: -0.682 |
| GGAGAUCUAUUCGGACACUTT against Inpp5a | inactive: 0.263 |
| GCCGAACAAAAACACCGAUTT against A430107P09Rik | inactive: 0.0605 |
| CCACUGUGCAAGAAGCACGTT against Ldb3 | inactive: -0.796 |
| GGUUAUCAAGGACCAAAAATT against Ivl | inactive: -2.21 |
| GGACAAAGGUGUCAACUCCTT against Crmp1 | inactive: -0.491 |

| Sequence | z-score |
| --- | --- |
| GGAAUGAAUAAGUAGAGACTT against Unc5cl | inactive: -0.0998 |
| GCCGAGAGAGCCAAUACAATT against Tcd1d16 | inactive: -0.49 |
| GGUUCACUUCAGUGUAUAUTT against Morf4l1 | inactive: -0.728 |
| GGUACUUGAGUUGGCAGGATT against H2afz | inactive: 1.93 |
| GGCUGUGGGUCUAUUCUACTT against 3110005O21Rik | inactive: -0.846 |
| GGGUGAUUUCUACCUUCAATT against D630003M21 | inactive: -0.929 |
| GGUUGAGUUCCUGUAACUUTT against Mat1a | inactive: -0.0141 |
| CCAUAGUGUAUCUGACUGGTT against D6Ertd349e | inactive: -1.87 |
| GCAAGAACCUGGCCCAGAATT against Folr4 | inactive: -2.53 |
| GUUCUACAUCAAGACAUCCTT against Crabp1 | inactive: 1.97 |
| CCACCUUUCUCACAGAUAATT against A430065P19Rik | inactive: -0.213 |
| GGACGAUUCAAGGUAACAUTT against Esrrg | inactive: -0.00394 |
| GGCUUUACAAAUCUUGUCUTT against Gpx6 | inactive: 0.551 |
| GCGAUGUUUGGAUGACUUATT against Eftud1 | inactive: -0.883 |
| GCAUCUGGAAUUAUGGGUCTT against 2310030G06Rik | inactive: -0.55 |
| GGAAAACUUGAGGCGGAUCTT against E130303B06Rik | inactive: 1.04 |
| CCUCGGUCAGAUUCCUGAUTT against Phpt1 | inactive: -0.189 |
| GAUGUCCUUCACCUUUGCCTT against Atp5d | inactive: -1.62 |
| CCCUUUCGAGGUGGUAAAATT against Slc25a21 | inactive: -0.768 |
| GGGCGUACCUGUCUUUUCATT against 9030616D13Rik | inactive: 2.29 |
| GGGACUCCCUACAUUAAUCTT against 1110033O09Rik | inactive: 1.3 |
| GGAAAUGGCUAUUGAUAUCTT against Actl6b | inactive: -0.329 |

Part of the list above in another layout:
GGAUACGAGACAAUGAGAATT against Kctd2
  z-score: inactive: -0.607
CCAUAGUGUAUCUGACUGGTT against D6Ertd349e
  z-score: inactive: -1.87

Exported tab-delimited: part of the list above.
Sequence	z-score
GUUCUACAUCAAGACAUCCTT against Crabp1	inactive: 1.97
CCACCUUUCUCACAGAUAATT against A430065P19Rik	inactive: -0.213
